Results on one molecule are retold here after PMC7199855, “GRAF2, WDR44, and MICAL1 mediate Rab8/10/11–dependent export of E-cadherin, MMP14, and CFTR ΔF508” (The Journal of Cell Biology, 2020).

Chains of the proteins cited; added tags and fusions are not shown.
UniProt Q8N3F8: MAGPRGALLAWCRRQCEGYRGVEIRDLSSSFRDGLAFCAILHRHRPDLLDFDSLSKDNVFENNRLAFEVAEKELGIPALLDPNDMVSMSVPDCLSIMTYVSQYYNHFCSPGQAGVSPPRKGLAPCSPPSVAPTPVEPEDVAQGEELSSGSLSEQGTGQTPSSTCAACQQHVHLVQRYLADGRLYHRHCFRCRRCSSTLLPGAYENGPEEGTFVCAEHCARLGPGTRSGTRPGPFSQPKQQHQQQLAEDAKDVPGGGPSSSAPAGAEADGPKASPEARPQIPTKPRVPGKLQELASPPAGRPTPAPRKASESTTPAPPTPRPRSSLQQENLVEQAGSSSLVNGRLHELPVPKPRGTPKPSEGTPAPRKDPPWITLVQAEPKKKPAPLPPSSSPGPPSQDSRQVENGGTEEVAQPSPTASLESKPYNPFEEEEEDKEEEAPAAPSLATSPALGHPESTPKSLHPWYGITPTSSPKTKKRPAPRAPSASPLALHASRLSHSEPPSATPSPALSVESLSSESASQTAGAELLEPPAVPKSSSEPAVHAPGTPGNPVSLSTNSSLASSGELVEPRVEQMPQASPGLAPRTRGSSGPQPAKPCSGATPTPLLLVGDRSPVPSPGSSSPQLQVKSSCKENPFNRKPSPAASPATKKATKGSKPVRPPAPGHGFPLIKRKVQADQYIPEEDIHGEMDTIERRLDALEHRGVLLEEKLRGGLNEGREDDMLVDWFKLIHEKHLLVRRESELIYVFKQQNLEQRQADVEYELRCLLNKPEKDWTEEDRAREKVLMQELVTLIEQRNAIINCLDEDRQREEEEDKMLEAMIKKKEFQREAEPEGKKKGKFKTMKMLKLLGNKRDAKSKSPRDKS
UniProt Q8IY33: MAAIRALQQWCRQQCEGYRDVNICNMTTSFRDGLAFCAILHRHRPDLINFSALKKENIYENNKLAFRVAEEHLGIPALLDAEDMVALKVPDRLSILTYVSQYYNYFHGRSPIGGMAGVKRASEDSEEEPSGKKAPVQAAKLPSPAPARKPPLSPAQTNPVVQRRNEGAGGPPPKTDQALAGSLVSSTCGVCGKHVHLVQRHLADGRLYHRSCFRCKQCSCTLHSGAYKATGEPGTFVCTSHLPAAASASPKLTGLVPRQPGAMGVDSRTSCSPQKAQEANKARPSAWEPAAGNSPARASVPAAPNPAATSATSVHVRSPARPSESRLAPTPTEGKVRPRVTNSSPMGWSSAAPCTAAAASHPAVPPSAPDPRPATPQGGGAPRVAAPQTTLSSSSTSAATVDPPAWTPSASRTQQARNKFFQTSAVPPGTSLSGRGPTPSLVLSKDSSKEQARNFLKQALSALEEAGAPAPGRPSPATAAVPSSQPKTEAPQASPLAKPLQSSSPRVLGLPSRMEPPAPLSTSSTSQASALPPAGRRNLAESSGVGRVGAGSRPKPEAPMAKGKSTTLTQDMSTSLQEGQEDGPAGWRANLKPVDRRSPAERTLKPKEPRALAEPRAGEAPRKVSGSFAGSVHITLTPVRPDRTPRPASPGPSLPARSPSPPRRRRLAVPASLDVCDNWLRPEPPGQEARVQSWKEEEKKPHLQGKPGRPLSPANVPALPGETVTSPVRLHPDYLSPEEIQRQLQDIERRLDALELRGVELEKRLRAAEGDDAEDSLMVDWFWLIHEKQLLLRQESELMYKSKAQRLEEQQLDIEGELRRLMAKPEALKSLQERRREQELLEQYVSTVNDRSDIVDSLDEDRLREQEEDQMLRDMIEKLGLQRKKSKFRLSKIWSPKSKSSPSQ

These are yes or no findings as the source states them, for the method shown. In cells and extracts the contact can be indirect. Some results given as binding are weak or reduced against the parent protein; the word gives no strength. Sequences can lack the tags named with a protein.

What all share (test): co-IP; transfected 293T, IP with α-GFP and Protein G Sepharose; 20 mM Hepes pH 7.4, 150 mM NaCl, 2 mM EDTA, 1% IGEPAL CA-630; Western blot
The target in assay [1] is T1, GFP-MICAL1 (human) (UniProt Q8TDZ2).
T1 sequence: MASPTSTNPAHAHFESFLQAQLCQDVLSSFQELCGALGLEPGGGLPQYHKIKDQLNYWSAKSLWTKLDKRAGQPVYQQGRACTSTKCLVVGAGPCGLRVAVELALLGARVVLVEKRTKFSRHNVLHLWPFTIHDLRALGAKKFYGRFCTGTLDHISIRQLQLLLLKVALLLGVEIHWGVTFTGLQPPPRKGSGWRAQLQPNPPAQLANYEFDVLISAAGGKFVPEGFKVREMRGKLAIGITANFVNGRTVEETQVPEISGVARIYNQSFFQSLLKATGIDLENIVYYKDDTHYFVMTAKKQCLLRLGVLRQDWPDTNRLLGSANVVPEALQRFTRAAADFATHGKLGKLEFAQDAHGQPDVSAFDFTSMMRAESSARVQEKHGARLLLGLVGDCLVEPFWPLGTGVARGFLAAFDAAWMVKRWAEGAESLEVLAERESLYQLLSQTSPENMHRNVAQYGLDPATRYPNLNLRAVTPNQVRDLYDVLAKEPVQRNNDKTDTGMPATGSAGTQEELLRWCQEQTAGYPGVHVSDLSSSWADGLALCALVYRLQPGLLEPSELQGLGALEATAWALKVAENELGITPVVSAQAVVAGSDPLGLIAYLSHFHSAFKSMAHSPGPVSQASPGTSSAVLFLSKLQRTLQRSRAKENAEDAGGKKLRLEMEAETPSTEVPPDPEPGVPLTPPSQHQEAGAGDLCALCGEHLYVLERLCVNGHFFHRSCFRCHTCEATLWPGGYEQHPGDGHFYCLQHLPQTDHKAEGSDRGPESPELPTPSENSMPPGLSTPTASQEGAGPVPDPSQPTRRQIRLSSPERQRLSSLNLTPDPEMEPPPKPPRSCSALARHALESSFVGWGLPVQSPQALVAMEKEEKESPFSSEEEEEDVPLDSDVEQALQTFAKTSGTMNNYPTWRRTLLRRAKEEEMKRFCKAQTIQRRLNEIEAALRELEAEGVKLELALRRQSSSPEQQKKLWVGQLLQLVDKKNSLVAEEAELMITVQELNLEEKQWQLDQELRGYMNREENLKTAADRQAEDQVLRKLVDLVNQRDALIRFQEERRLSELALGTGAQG

Assay [2] addresses T2, GFP-WDR44 (human) (UniProt Q5JSH3).
T2 sequence: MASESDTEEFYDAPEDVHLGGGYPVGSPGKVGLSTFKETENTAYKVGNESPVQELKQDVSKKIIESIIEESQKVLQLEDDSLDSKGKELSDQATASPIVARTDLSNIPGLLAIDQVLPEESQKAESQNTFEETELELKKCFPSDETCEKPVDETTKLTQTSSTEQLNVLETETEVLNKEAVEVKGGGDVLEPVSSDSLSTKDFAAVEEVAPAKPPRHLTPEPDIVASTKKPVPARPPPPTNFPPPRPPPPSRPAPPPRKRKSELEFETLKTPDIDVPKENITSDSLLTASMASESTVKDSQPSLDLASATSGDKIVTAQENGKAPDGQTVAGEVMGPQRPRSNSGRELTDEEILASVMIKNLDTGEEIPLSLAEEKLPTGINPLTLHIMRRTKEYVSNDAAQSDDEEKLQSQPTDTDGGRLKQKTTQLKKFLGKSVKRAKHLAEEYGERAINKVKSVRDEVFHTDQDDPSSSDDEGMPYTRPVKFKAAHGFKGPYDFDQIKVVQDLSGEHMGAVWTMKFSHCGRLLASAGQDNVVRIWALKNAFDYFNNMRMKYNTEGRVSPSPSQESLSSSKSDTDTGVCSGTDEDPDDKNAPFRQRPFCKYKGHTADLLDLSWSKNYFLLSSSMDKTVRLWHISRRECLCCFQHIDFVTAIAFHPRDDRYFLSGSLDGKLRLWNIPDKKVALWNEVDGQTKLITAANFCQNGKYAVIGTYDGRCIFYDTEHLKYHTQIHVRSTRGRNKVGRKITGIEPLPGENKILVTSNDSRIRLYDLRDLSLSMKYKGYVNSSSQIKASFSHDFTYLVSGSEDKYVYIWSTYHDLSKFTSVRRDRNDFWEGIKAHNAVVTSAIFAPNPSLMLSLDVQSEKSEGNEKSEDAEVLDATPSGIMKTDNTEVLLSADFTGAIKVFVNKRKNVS

Assay [3] addresses GFP–MICAL-L1 (human) (UniProt Q8N3F8).
In assay [4] the target is GFP–MICAL-L2 (human) (UniProt Q8IY33).

B1: untagged GRAF2 (protein, UniProt A1A4S6 1-786)
chain: MGLQPLEFSDCYLDSPWFRERIRAHEAELERTNKFIKELIKDGKNLIAATKSLSVAQRKFAHSLRDFKFEFIGDAVTDDERCIDASLREFSNFLKNLEEQREIMALSVTETLIKPLEKFRKEQLGAVKEEKKKFDKETEKNYSLIDKHLNLSAKKKDSHLQEADIQVEQNRQHFYELSLEYVCKLQEIQERKKFEFVEPMLSFFQGMFTFYHQGHELAKDFNHYKMELQINIQNTRNRFEGTRSEVEELMNKIRQNPKDHKRASQFTAEGYLYVQEKRPAPFGSSWVKHYCMYRKAAKKFNMIPFEHRSGGKLGDGEVFFLKECTKRHTDSIDRRFCFDIEAADRPGVSLTMQAFSEEERKQWLEALGGKEALSHSFNTAIIPRPEGNAQLDKMGFTIIRKCISAVETRGINDQGLYRVVGVSSKVQRLLSMLMDVKTCNEVDLENSADWEVKTITSALKQYLRSLPEPLMTYELHGDFIVPAKSGSPESRVNAIHFLVHKLPEKNKEMLDILVKHLTNVSNHSKQNLMTVANLGVVFGPTLMRPQEETVAALMDLKFQNIVVEILIENHEKIFRTPPDTTFPEPTCLSASPPNAPPRQSKRQGQRTKRPVAVYNLCLELEDGDNPYPSKEDTPTSSLDSLSSPSPVTTAVPGPPGPDKNHLLADGGSFGDWASTIPGQTRSSMVQWLNPQSPTTTSSNSAVTPLSPGSSPFPFSPPATVADKPPESIRSRKARAVYPCEAEHSSELSFEIGAIFEDVQTSREPGWLEGTLNGKRGLIPQNYVKLL
Consider B1, for which the binding entry in assay [1] is “binds”; in assay [2], “binds”; in assay [3], “no binding”; in assay [4], “no binding”.
